The target of experiment [1] is Human ADAM-His protein (ACROBiosystems, Cat. No. AD9-H52H7) (human) (UniProt Q13443). As to the kind of experiment: indirect ELISA.
Experiment [2] has the same target. In words: ELISA and Biacore. Background: ELISA stands for enzyme-linked immunosorbent assay.
Experiment [3] has as its target cynomolgus ADAM9 protein (ACRO, Cat. No. AD9-C52H7) (cynomolgus monkey). In words: ELISA and Biacore.

Protein sequences, listed by entry. Tags and fused reporters are not part of them. Residues count along the entry.
UniProt Q13443, residues 206-697: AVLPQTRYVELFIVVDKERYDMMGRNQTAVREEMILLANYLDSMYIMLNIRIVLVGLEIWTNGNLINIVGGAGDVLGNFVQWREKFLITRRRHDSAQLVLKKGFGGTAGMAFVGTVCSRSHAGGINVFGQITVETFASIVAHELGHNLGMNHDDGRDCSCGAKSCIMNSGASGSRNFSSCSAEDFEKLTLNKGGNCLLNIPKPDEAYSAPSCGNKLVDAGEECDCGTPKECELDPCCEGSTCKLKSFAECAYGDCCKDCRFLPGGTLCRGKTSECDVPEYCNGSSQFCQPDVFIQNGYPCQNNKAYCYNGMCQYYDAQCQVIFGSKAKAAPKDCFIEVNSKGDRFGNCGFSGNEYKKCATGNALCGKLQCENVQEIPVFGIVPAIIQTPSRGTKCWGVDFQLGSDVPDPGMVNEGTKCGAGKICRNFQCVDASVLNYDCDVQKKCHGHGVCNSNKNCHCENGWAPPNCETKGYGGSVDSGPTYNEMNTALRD

These are yes or no findings as the source states them, for the method shown. Some binding calls cover weakened binding; strength is not graded here.

B1: Ab4 (antibody, human IgG1, kappa, V domains shown)
VH: QVQLQESGAEVKRPGSSVKVSCKASGFTFPLYWMNWVRQRPGRGLEWMGRIIPIFGHTKYNEKFKDRATMTRDKSSSTAYMELSSLTSDDSAVYYCARGGYYYYPREGFLDYWGQGTSVTVSS
VL: DIVMTQSPSSLSVSPGERATINCRSSQSVDYSGDSYMNWYQQKPGQAPRLLIYAASDLESGVPDRFSGSGSGTDFTLNINGVEEEDAATYYCQQSREDPFTFGQGTKVEIKR
As to B1, the binding entry in experiment [1] is listed as “binds”.

B2: Ab15 (antibody, human IgG1, kappa, V domains shown)
VH: QVQLQQPGAELKKPGASVKVSCKASGFTFPLYWMNWVRQRPGRGLEWIGRIIPIFGHTKYNEKFKDRATMTADESSSTAYMELSSLTSEDSAVYYCARGGYYYYPREGFLDYWGQGTSVTVSS
VL: DIVMTQSPDSLSVSPGERATINCRSSQSVDYSGDSYMNWYQQKPGQSPRLLIYAASDRESGVPDRFSGSGSGTDFTLKISNVEEEDAATYYCQQSREDPFTFGQGTRVEIKR
Regarding B2, the binding result in experiment [1], in experiment [2] and in experiment [3] was “binds” throughout.

These data come from patent EP4692118A1.
